Molecular target: T1, Aβ1–42 (Homo sapiens, UniProt P05067)
T1 construct: Recombinant human HFIP-pretreated Aβ1–42 peptide; purchased Merck Millipore Lot number 2387442
Assay: Thioflavin-T fluorometric assay of self-induced Aβ1–42 aggregation
Type: biochemical
Conditions: read-out: Aβ1–42 Aggreg. % of inhibition
Description: Mechanisms of Aβ aggregation remain unclear. Besides the self-induced assembly of Aβ, several other factors affect its aggregation, including metal ions, AChE [45], and oxidative stress. Therefore, we evaluated our compounds using the most versatile and commonly used Aβ1–42 aggregation Thioflavin T assay. Seven structurally diverse compounds were selected (one from each subseries) to test their ability to inhibit self-induced Aβ1–42 aggregation.
Thioflavin-T (ThT) fluorometric assay was performed to investigate the effect of the test compounds on the self-aggregation of Aβ1–42. […] Each sample was prepared in quadruplicate, and the DMSO was always at 3%. To quantify amyloid fibril formation, the ThT fluorescence was measured through the bottom of the plate every 180 s at an excitation wavelength of 440 nm and emission wavelength of 490 nm, with the medium continuously shaking between measurements using a 96-well microplate reader (Synergy™ H4, BioTek Instruments, Inc., Winooski, VT, USA). […] The fluorescence intensities at the plateau in the absence and presence of the test compounds were averaged, and the average fluorescence of the corresponding wells at t = 0 h was subtracted.

By UniProt entry, the sequences of proteins in these tests, tags left out. Residues count along the entry.
UniProt P05067, 672-713: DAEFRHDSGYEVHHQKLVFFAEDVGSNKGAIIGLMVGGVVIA

COc1cc2c(cc1OC)C(=O)C(CC1CCN(Cc3ccccc3)CC1)C2 (stereo not shown) [Donepezil, reference compound]
inhibition at 10 µM: 11.5 ± 4.51%

Source: PMC6273065, “Synthesis, Molecular Modelling and Biological Evaluation of Novel Heterodimeric, Multiple Ligands Targeting Cholinesterases and Amyloid Beta” (Molecules, 2016)
